# Test results from the supplement of paper PMC10338343.
# ± gives the standard deviation. The entries are a selection whose mix differs from that of the whole data set. Many entries were measured with a wide error.
# System: MILI (PIWIL2) piRISC loaded with L1MC piRNA (26 nt)
# Assay: pre-steady-state target cleavage rate (min^-1); MIWI and MILI are mouse PIWI proteins and EfPiwi is from a freshwater sponge; tags in brackets are library labels; higher = faster piRNA-guided slicing of the target
# Conditions: guide: L1MC piRNA 5'p-UAACUAAAUACUAUGCAAGCUGUAGG; auxiliary factor: 500 nM mouse GTSF1
# Description: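 Cleave-'n-Seq: a library of target RNAs (target site embedded in constant flanks, ACAGCATTCCGCGTTAGTGATATCCG... 5' flank; DNA-blocked outside the site) at 0.1 nM was incubated with 1 nM active mouse MILI or MIWI piRISC (synthetic 5'-monophosphorylated piRNA guide) with or without 500 nM mouse GTSF1 at 33 °C for 1 min to 16 h. Uncleaved targets were sequenced and normalised to non-target controls, and the pooled three trials were fitted to a burst-and-steady-state model to give the pre-steady-state cleavage rate (min^-1; k3 is constrained to at most 1e-4). Sequence is the target site only; target names encode pairing extent (gX:gY) and contiguous / 1-mismatch / 2-mismatch / bulge geometry. Fits with R² ≤ 0 are excluded.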
row,Sequence,pre-steady-state target cleavage rate
1,UCCUGGAUGUCGAUGCAUUGUAUUUAGAUA,0.000247 ± 0.037
2,UCCUGGAUGUCGUUGCAUAGUAUUUAGUUUA,0.178 ± 0.018
3,UCCUGGUACAGCUUGCAAUGUAUUUACAAA,0.00784 ± 0.0049
4,UCCUGGAUGUGCUUGCAUUCUAUUUAGUAA,0.00199 ± 0.0058
5,UCCUGGAACAGGUUGCAUAGUAUUUAGUUA,0.308 ± 0.018
6,UCCUGGAUCAGCUUGGAUAGUAUUUAGAUA,0.0949 ± 0.016
7,UCCUGGAUGUCGAACCGAUAGUAUUUAGUUA,0.00115 ± 0.0075
8,UCCUGGAUGUCCUUGCAUUCUAUUUAGUUA,0.00856 ± 0.0043
9,UCCUGGAUGUCGAAGCAUAGAAUUUAGUUA,0.00179 ± 0.0038
10,UCCUCGAACAGCUUGCAUAGUAUUUACAAA,0.0992 ± 0.021
11,UCCUGGAUGUCGUACGAUAGUAUUUAGUUA,0.00104 ± 0.0075
12,UCCUGCAACAGCUUGCAUAGUAUUUAGUAA,0.333 ± 0.031
13,UCCUGGAACAGCUUGCAUAGAUAUUAGAAA,0.00344 ± 0.0041
14,UCCUGGAUGUCGAACGAUAUAUUUAGUUA,0.000204 ± 0.022
15,UCCUGGAACAGCUUGCAAGUAUUUAGUUA,0.141 ± 0.013
16,UCCUCCUACAGCUUGGAUAGUAUUUUGUUA,0.164 ± 0.028
17,UCCUGGAUGUGCUUGCAUAGUAUAUUAGUUA,0.111 ± 0.016
18,UCCUGGUACACCUUGCAUAGUAUUAAGUUA,0.218 ± 0.066

# Same assay, conditions: guide: L1MC piRNA 5'p-UAACUAAAUACUAUGCAAGCUGUAGG; auxiliary factor: none (no GTSF1)
row,Sequence,pre-steady-state target cleavage rate
1,UCCUGGAUGUCGAAGCAUAGUUUUUAGAUA,0.000242 ± 0.015
2,UCCUGGAUGUCGUUGCAUAGUAUUUAGUUUA,0.0103 ± 0.0039
3,UCCUGGUACAGCUUGCAAUGUAUUUACAAA,0.00185 ± 0.0046
4,UCCUGGAUGUGCUUGCAUUCUAUUUAGUAA,0.00073 ± 0.0073
5,UCCUGCUACAGCUUGCAUAGUAAAAAGUAA,0.00113 ± 0.0052
6,UCCUGGAUGUCCUUGCAUCAGUAUUUAGUUA,0.000777 ± 0.0076
7,UCCUGGAACAGCUUGCAUAGAAUUUACUUA,0.000839 ± 0.0072
8,UCCUGGAUCAGCUUGGAUAGUAUUUAGAUA,0.0013 ± 0.0041
9,UCCUGGAUGUCGAACCGAUAGUAUUUAGUUA,0.000251 ± 0.0088
10,UCCUGGAUGUCCUUGCAUUCUAUUUAGUUA,0.00132 ± 0.0052
11,UCCUGGAUGUGCUUGCAUAGUUAAUAGUUA,0.00221 ± 0.0034
12,UCCUGGAUGUCGAAGCAUAGAAUUUAGUUA,0.000812 ± 0.005
13,UCCUCGAACAGCUUGCAUAGUAUUUACAAA,0.00165 ± 0.0038
14,UCCUGGAACAGCUUGCAUAGAUAUUAGAAA,0.000899 ± 0.006
15,UCCUGGAACAGCUUGCAAGUAUUUAGUUA,0.00614 ± 0.0021
16,UCCUGGAACAGCUUGCUUAGUAUUUAGUAA,0.00178 ± 0.0048
17,UCCUCCUACAGCUUGGAUAGUAUUUUGUUA,0.00424 ± 0.0026
18,UCCUGGAUGUGCUUGCAUAGUAUAUUAGUUA,0.00381 ± 0.0027
19,UCCUGGUACACCUUGCAUAGUAUUAAGUUA,0.00158 ± 0.0067
20,UCCUCCUACAGCUUGCAUAGUUUUUACAAA,0.0014 ± 0.0044
21,UCCUGCUAGAGCUUGCAUAGUAUUUAGAUA,0.00164 ± 0.0037
